# From the supplement of paper PMC10077471
# Over roughly 1,900 compounds, “excess over highest single agent (ExcessHSA) synergy score, 6x6 matrix” has its median near -83; the lowest 2% begin near -370. This is one part of the list.
# System: NCI-H446
# Test: excess over highest single agent (ExcessHSA) synergy score, 6x6 matrix; higher = less synergy (more negative = stronger synergy)
# Conditions: 72 h; CellTiter-Glo viability
row,SMILES,excess over highest single agent
1,CC(C)(C)OC(=O)CN(Cc1ccc(Cl)cc1)Cc1ccc([N+](=O)[O-])s1 + Cc1sc2c(c1C)C(c1ccc(Cl)cc1)=N[C@@H](CC(=O)OC(C)(C)C)c1nnc(C)n1-2 [NCGC00250412-19],27
2,O=C(Nc1ccccc1Br)N[C@@H]1CCN(c2ccc(C(F)(F)F)cn2)C1 + Cc1sc2c(c1C)C(c1ccc(Cl)cc1)=N[C@@H](CC(=O)OC(C)(C)C)c1nnc(C)n1-2 [NCGC00250412-19],-195
3,O=C(NOCC(O)CO)c1cc(Br)c(F)c(F)c1Nc1ccc(I)cc1F (configuration not stated) + Cc1sc2c(c1C)C(c1ccc(Cl)cc1)=N[C@@H](CC(=O)OC(C)(C)C)c1nnc(C)n1-2 [NCGC00250412-19],-137
4,NC[C@@H]1O[C@@H](O[C@H]2[C@@H](O)[C@H](O[C@@H]3[C@@H](O)[C@H](N)C[C@H](N)[C@H]3O[C@H]3O[C@H](CN)[C@@H](O)[C@H](O)[C@H]3N)O[C@@H]2CO)[C@H](N)[C@@H](O)[C@@H]1O + Cc1sc2c(c1C)C(c1ccc(Cl)cc1)=N[C@@H](CC(=O)OC(C)(C)C)c1nnc(C)n1-2 [NCGC00250412-19],-25.8
5,C#CCC(Cc1cnc2nc(N)nc(N)c2n1)c1ccc(C(=O)N[C@@H](CCC(=O)O)C(=O)O)cc1 (some centres not stated) + Cc1sc2c(c1C)C(c1ccc(Cl)cc1)=N[C@@H](CC(=O)OC(C)(C)C)c1nnc(C)n1-2 [NCGC00250412-19],-285
6,O=C(C[S+]([O-])Cc1ccco1)NC/C=C\COc1cc(CN2CCCCC2)ccn1 (configuration not stated) + Cc1sc2c(c1C)C(c1ccc(Cl)cc1)=N[C@@H](CC(=O)OC(C)(C)C)c1nnc(C)n1-2 [NCGC00250412-19],-37.8
7,Clc1ccc2ncc(-c3cccc(NC4CNC4)n3)n2c1 + Cc1sc2c(c1C)C(c1ccc(Cl)cc1)=N[C@@H](CC(=O)OC(C)(C)C)c1nnc(C)n1-2 [NCGC00250412-19],-64.1
8,C=C1C(=O)OC(CCCCCCCC)C1C(=O)O (configuration not stated) + Cc1sc2c(c1C)C(c1ccc(Cl)cc1)=N[C@@H](CC(=O)OC(C)(C)C)c1nnc(C)n1-2 [NCGC00250412-19],-149
9,CCN(CC)CCCC(C)Nc1nc(C)cc(Nc2ccc3nc(C)cc(N)c3c2)n1 (configuration not stated) + Cc1sc2c(c1C)C(c1ccc(Cl)cc1)=N[C@@H](CC(=O)OC(C)(C)C)c1nnc(C)n1-2 [NCGC00250412-19],-87.5
10,O=C(c1ccccc1)c1ccc2n1CCC2C(=O)O (configuration not stated) + Cc1sc2c(c1C)C(c1ccc(Cl)cc1)=N[C@@H](CC(=O)OC(C)(C)C)c1nnc(C)n1-2 [NCGC00250412-19],-87.3
11,COc1c(N2CCNC(C)C2)c(F)cc2c(=O)c(C(=O)O)cn(C3CC3)c12 (configuration not stated) + Cc1sc2c(c1C)C(c1ccc(Cl)cc1)=N[C@@H](CC(=O)OC(C)(C)C)c1nnc(C)n1-2 [NCGC00250412-19],-35.2
12,O=C1NC(=O)/C(=C/c2ccc3c(c2)OC(F)(F)O3)S1 + Cc1sc2c(c1C)C(c1ccc(Cl)cc1)=N[C@@H](CC(=O)OC(C)(C)C)c1nnc(C)n1-2 [NCGC00250412-19],124
13,CCN(CC)C(=O)c1ccc(C2=CC3(CCNCC3)Oc3cccc(O)c32)cc1 + Cc1sc2c(c1C)C(c1ccc(Cl)cc1)=N[C@@H](CC(=O)OC(C)(C)C)c1nnc(C)n1-2 [NCGC00250412-19],66.6
14,COc1cc([C@@H]2c3cc4c(cc3[C@@H](O[C@@H]3O[C@@H]5CO[C@@H](c6cccs6)O[C@H]5[C@H](O)[C@H]3O)[C@H]3COC(=O)[C@H]23)OCO4)cc(OC)c1O + Cc1sc2c(c1C)C(c1ccc(Cl)cc1)=N[C@@H](CC(=O)OC(C)(C)C)c1nnc(C)n1-2 [NCGC00250412-19],-144
15,CCC(=O)N[C@H]1CC[C@H](C(=O)N(C)c2ccc(-c3nc4ccccc4o3)cc2)C1 + Cc1sc2c(c1C)C(c1ccc(Cl)cc1)=N[C@@H](CC(=O)OC(C)(C)C)c1nnc(C)n1-2 [NCGC00250412-19],-57
16,Nc1ccc(C(=O)Nc2cccc(-c3nc(N4CCOCC4)c4oc5ncccc5c4n3)c2)cn1 + Cc1sc2c(c1C)C(c1ccc(Cl)cc1)=N[C@@H](CC(=O)OC(C)(C)C)c1nnc(C)n1-2 [NCGC00250412-19],98.4
17,CCN1CCC(n2cc(CNc3cc(Cl)c4ncc(C#N)c(Nc5ccc(F)c(Cl)c5)c4c3)nn2)CC1 + Cc1sc2c(c1C)C(c1ccc(Cl)cc1)=N[C@@H](CC(=O)OC(C)(C)C)c1nnc(C)n1-2 [NCGC00250412-19],44.4
18,Nc1ccc(S(=O)(=O)Nc2ccccn2)cc1 + Cc1sc2c(c1C)C(c1ccc(Cl)cc1)=N[C@@H](CC(=O)OC(C)(C)C)c1nnc(C)n1-2 [NCGC00250412-19],279
19,Cn1cc(-c2ccncc2)c(-c2ccc(OCc3ccc4ccccc4n3)cc2)n1 + Cc1sc2c(c1C)C(c1ccc(Cl)cc1)=N[C@@H](CC(=O)OC(C)(C)C)c1nnc(C)n1-2 [NCGC00250412-19],-33.6

row,SMILES,excess over highest single agent
1,O=C(O)[C@H]1O[C@@H](Oc2cc3oc(-c4ccccc4)cc(=O)c3c(O)c2O)[C@H](O)[C@@H](O)[C@@H]1O + Cc1sc2c(c1C)C(c1ccc(Cl)cc1)=N[C@@H](CC(=O)OC(C)(C)C)c1nnc(C)n1-2 [NCGC00250412-19],-92.6
2,Cc1[nH]c2ccccc2c1CCNCc1ccc(/C=C/C(=O)NO)cc1 + Cc1sc2c(c1C)C(c1ccc(Cl)cc1)=N[C@@H](CC(=O)OC(C)(C)C)c1nnc(C)n1-2 [NCGC00250412-19],-210
3,COc1ccnc(C[S+]([O-])c2nc3cc(OC(F)F)ccc3[nH]2)c1OC (configuration not stated) + Cc1sc2c(c1C)C(c1ccc(Cl)cc1)=N[C@@H](CC(=O)OC(C)(C)C)c1nnc(C)n1-2 [NCGC00250412-19],192
4,Nc1ccn([C@@H]2O[C@H](CO)[C@@H](O)[C@@H]2O)c(=O)n1 + Cc1sc2c(c1C)C(c1ccc(Cl)cc1)=N[C@@H](CC(=O)OC(C)(C)C)c1nnc(C)n1-2 [NCGC00250412-19],-107
5,CC(NCc1ccc2c(c1)nc(NC(=O)c1ccc(-c3cn[nH]c3)s1)n2CC(C)(C)O)C(C)(C)C (configuration not stated) + Cc1sc2c(c1C)C(c1ccc(Cl)cc1)=N[C@@H](CC(=O)OC(C)(C)C)c1nnc(C)n1-2 [NCGC00250412-19],-312
6,c1cncc(CN2CCC(n3ncc4c(N5CCOCC5)nc(-c5ccc6[nH]ccc6c5)nc43)CC2)c1 + Cc1sc2c(c1C)C(c1ccc(Cl)cc1)=N[C@@H](CC(=O)OC(C)(C)C)c1nnc(C)n1-2 [NCGC00250412-19],-140
7,Cn1cc(C2=C(c3c4n(c5ccccc35)CCC(CN)C4)C(=O)NC2=O)c2ccccc21 (configuration not stated) + Cc1sc2c(c1C)C(c1ccc(Cl)cc1)=N[C@@H](CC(=O)OC(C)(C)C)c1nnc(C)n1-2 [NCGC00250412-19],-42.8
8,CCC[C@@H](C=O)NC(=O)[C@H](CC(C)C)NC(=O)[C@H](CC(C)C)NC(=O)OCc1ccccc1 + Cc1sc2c(c1C)C(c1ccc(Cl)cc1)=N[C@@H](CC(=O)OC(C)(C)C)c1nnc(C)n1-2 [NCGC00250412-19],-225
9,Cc1nnc(C(C)C)n1[C@H]1C[C@H]2CC[C@@H](C1)N2CC[C@H](NC(=O)C1CCC(F)(F)CC1)c1ccccc1 + Cc1sc2c(c1C)C(c1ccc(Cl)cc1)=N[C@@H](CC(=O)OC(C)(C)C)c1nnc(C)n1-2 [NCGC00250412-19],-88.4
10,Cc1ccc2c(=O)c3cccc(CC(=O)O)c3oc2c1C + Cc1sc2c(c1C)C(c1ccc(Cl)cc1)=N[C@@H](CC(=O)OC(C)(C)C)c1nnc(C)n1-2 [NCGC00250412-19],-18.2
11,C=C1/C(=C\C=C2/CCC[C@]3(C)[C@@H]([C@H](C)/C=C/[C@H](C)C(C)C)CC[C@@H]23)C[C@@H](O)C[C@@H]1O + Cc1sc2c(c1C)C(c1ccc(Cl)cc1)=N[C@@H](CC(=O)OC(C)(C)C)c1nnc(C)n1-2 [NCGC00250412-19],186
12,Cc1nc(-c2ccc(OCC(C)C)c(C#N)c2)sc1C(=O)O + Cc1sc2c(c1C)C(c1ccc(Cl)cc1)=N[C@@H](CC(=O)OC(C)(C)C)c1nnc(C)n1-2 [NCGC00250412-19],-14
13,CC(C(=O)O)c1ccc2c(c1)CC(=O)c1ccccc1S2 (configuration not stated) + Cc1sc2c(c1C)C(c1ccc(Cl)cc1)=N[C@@H](CC(=O)OC(C)(C)C)c1nnc(C)n1-2 [NCGC00250412-19],146
14,Oc1cc2c(cc1O)[C@@H]1c3ccc(O)c(O)c3OC[C@]1(O)C2 + Cc1sc2c(c1C)C(c1ccc(Cl)cc1)=N[C@@H](CC(=O)OC(C)(C)C)c1nnc(C)n1-2 [NCGC00250412-19],-67.2
15,CC(=O)[C@H]1CC[C@H]2[C@@H]3CC=C4C[C@@H](O)CC[C@]4(C)[C@H]3CC[C@]12C + Cc1sc2c(c1C)C(c1ccc(Cl)cc1)=N[C@@H](CC(=O)OC(C)(C)C)c1nnc(C)n1-2 [NCGC00250412-19],-78.5
16,COc1ccc(CC2c3cc(OC)c(OC)cc3CC[N+]2(C)CCC(=O)OCCCCCOC(=O)CC[N+]2(C)CCc3cc(OC)c(OC)cc3C2Cc2ccc(OC)c(OC)c2)cc1OC (configuration not stated) + Cc1sc2c(c1C)C(c1ccc(Cl)cc1)=N[C@@H](CC(=O)OC(C)(C)C)c1nnc(C)n1-2 [NCGC00250412-19],-227
17,CN(C)c1ccc(C(=C2C=CC(=[N+](C)C)C=C2)c2ccc(N(C)C)cc2)cc1 + Cc1sc2c(c1C)C(c1ccc(Cl)cc1)=N[C@@H](CC(=O)OC(C)(C)C)c1nnc(C)n1-2 [NCGC00250412-19],-106
18,CCN1CCN(Cc2ccc(-c3cc4c(N[C@H](C)c5ccccc5)ncnc4[nH]3)cc2)CC1 + Cc1sc2c(c1C)C(c1ccc(Cl)cc1)=N[C@@H](CC(=O)OC(C)(C)C)c1nnc(C)n1-2 [NCGC00250412-19],27.6

# No new results follow: an excerpt of the list.
row,SMILES,excess over highest single agent
13,CC(C(=O)O)c1ccc2c(c1)CC(=O)c1ccccc1S2 (configuration not stated) + Cc1sc2c(c1C)C(c1ccc(Cl)cc1)=N[C@@H](CC(=O)OC(C)(C)C)c1nnc(C)n1-2 [NCGC00250412-19],146
14,Oc1cc2c(cc1O)[C@@H]1c3ccc(O)c(O)c3OC[C@]1(O)C2 + Cc1sc2c(c1C)C(c1ccc(Cl)cc1)=N[C@@H](CC(=O)OC(C)(C)C)c1nnc(C)n1-2 [NCGC00250412-19],-67.2
